From paper doi:10.1101/2024.10.23.619792
No constants are given. Whether binding was seen depends on the method and setting. In cells and extracts the contact can be indirect. Binding can be weak; no strength is given.

Sequences of proteins named here, by UniProt entry; tags and fusion partners are left off. A change or cut given only in a name is not applied to a line headed by its entry.
UniProt Q7TT79: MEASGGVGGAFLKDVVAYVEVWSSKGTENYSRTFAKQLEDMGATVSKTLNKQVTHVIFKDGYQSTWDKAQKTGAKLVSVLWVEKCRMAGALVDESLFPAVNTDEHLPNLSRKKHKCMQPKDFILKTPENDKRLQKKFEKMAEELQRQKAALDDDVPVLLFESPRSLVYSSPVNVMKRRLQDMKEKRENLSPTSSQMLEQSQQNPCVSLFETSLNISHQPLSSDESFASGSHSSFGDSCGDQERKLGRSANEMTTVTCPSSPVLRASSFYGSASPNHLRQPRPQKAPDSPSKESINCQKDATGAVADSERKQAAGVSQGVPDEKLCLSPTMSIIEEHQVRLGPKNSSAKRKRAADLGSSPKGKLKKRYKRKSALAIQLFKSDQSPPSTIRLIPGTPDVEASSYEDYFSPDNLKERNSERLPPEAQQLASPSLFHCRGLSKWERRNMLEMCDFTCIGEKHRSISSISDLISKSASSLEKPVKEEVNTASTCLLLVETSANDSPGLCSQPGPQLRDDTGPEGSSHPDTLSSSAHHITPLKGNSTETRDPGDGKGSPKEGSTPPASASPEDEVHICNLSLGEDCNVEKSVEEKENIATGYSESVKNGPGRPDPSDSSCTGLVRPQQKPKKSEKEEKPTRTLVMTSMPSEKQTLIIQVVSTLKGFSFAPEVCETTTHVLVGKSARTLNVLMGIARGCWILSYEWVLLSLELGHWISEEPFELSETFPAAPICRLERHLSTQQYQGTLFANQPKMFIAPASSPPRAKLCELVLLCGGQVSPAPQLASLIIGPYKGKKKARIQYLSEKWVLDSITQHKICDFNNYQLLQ

Molecular target: MCPH1-BRCT-eCR (tandem BRCT domain of MCPH1 fused to eGFP) (mouse) (UniProt Q7TT79)
Experiment: pull-down

With “yH2AX (histone H2A variant X phosphorylated at Serine 139) (from UniProt P27661 1-143)” the binding was “binds”.
